Measured values reported in US20250127754A1, “Pharmaceutical Application of Dimyricetin-yl-diselenide in Atherosclerosis” (Shanghai Spark Pharmaceutical Co., Ltd., priority 2023, published 2025).

Columns and labels:
ApoE−/− mice [1] = assay: Plasma LDH content, high-fat diet atherosclerosis model; type: in vivo; settings: 18th week, compared to the model group; P<0.05
Excerpt: Upon arrival, ApoE−/− mice were acclimatized to the experimental facility for 3 days. […] Control mice were fed a regular diet, while the remaining mice were fed a high-fat diet for 18 weeks. […] At 8 weeks of high-fat feeding, the animals underwent echocardiography and blood biochemical tests. […] Drug administration continued for 10 weeks. During the experiment, the animals' appearance, behavior, and physical condition were observed, and their body weight, echocardiography, serum lipids (TC, TG, HDL-C, and LDL-C), and blood biochemistry (LDH, SOD, and MDA) were monitored. At the end of the experiment (Week 18), hearts and aortas were collected for Oil Red O staining and histopathological analysis. Animals were fasted the night before blood collection. Blood samples were collected and anticoagulated with heparin to prepare plasma for the detection of TG, TC, HDL-C, LDL-c, and LDH. Blood was collected at six time points: […]

ApoE−/− mice [2] = assay: Heart weight and heart weight index (tibial length corrected); type: in vivo; settings: week 18, 10 weeks QD: Atorvastatin 20 mg/kg P.O., AQ-C-a 300 mg/kg P.O., DMS-ASD 300 mg/kg P.O., DMS 20 mg/kg SC
Experimental: At the experimental endpoint, hearts and tibias were collected. The heart was weighed and its weight index was calculated using tibial length for correction, with the formula: Heart Index=Heart Weight (g)/Tibial Length (cm)×100%. The heart was fixed in 4% PFA and subjected to HE staining to evaluate fat plaques in the outflow tract.

SMILES: CC(C)c1c(C(=O)Nc2ccccc2)c(-c2ccccc2)c(-c2ccc(F)cc2)n1CC[C@@H](O)C[C@@H](O)CC(=O)O [Atorvastatin, reference compound]
- Effect on plasma LDH (in words) (ApoE−/− mice [1]): significant reductions
- Cardiac weight index (ApoE−/− mice [2]): 0.102 ± 0.005 g/cm
